Results taken from the supplement of paper PMC10727501.
Some of the results follow. Repeats in this data set agree poorly, so a single value says little.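 Free-swimming zebrafish larvae were assessed for O-bend response probability to dark flashes (naive: first five; training: remaining flashes across four 60-flash blocks; test: later 60-flash block) and for OMR turning toward alternating leftward/rightward LED motion. Six treated larvae were compared against sixty 0.1% DMSO controls; hits required |SSMD|≥2.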

Assays:
Settings in all cases: 10 µM; pre-incubation: 30-90 min
[1] = tested on: Danio rerio larvae (5 dpf, TLF); experiment: OMR-Perf (SSMD vs DMSO vehicle); higher = higher than vehicle (e.g. higher dark-flash O-bend response probability, or better optomotor performance)
[2] = tested on: Danio rerio larvae (5 dpf, TLF); experiment: Prob-Test (SSMD vs DMSO vehicle); higher = higher than vehicle (e.g. higher dark-flash O-bend response probability, or better optomotor performance)
[3] = tested on: Danio rerio larvae (5 dpf, TLF); experiment: Prob-Naive (SSMD vs DMSO vehicle); higher = higher than vehicle (e.g. higher dark-flash O-bend response probability, or better optomotor performance)
[4] = tested on: Danio rerio larvae (5 dpf, TLF); experiment: Prob-Train (SSMD vs DMSO vehicle); higher = higher than vehicle (e.g. higher dark-flash O-bend response probability, or better optomotor performance)

Which results are given for `CC(C)CN(C[C@@H](O)[C@H](Cc1ccccc1)NC(=O)O[C@H]1CCOC1)S(=O)(=O)c1ccc(N)cc1` [Amprenavir]?
OMR-Perf [1]: -0.116; Prob-Test [2]: -0.0494; Prob-Naive [3]: 0.0934; Prob-Train [4]: 0.0441

Which OMR-Perf [1] does the source give for `N[C@@]1(C(=O)O)CS(=O)(=O)[C@H]2[C@H](C(=O)O)[C@H]21` here?
The OMR-Perf was 0.305.

What about the Prob-Test [2] of the same molecule?
The Prob-Test was 0.0325.

And the Prob-Naive [3]?
Its Prob-Naive is -0.758.

And the Prob-Train [4]?
The Prob-Train was -0.342.

Which OMR-Perf [1] does the source give for `O[C@@H]1CO[C@@H]2[C@@H]1OC[C@@H]2O` [Isosorbide] here?
Its OMR-Perf is -0.635.

What about the Prob-Test [2] of the same molecule?
The Prob-Test was -0.0692.

What about the Prob-Naive [3] of the same molecule?
The Prob-Naive was 0.351.

What about the Prob-Train [4] of the same molecule?
Its Prob-Train is -0.0565.

Which OMR-Perf [1] does the source give for `C[C@H](Cn1cnc2c(N)ncnc21)OCP(=O)(O)O` [Tenofovir] here?
Its OMR-Perf is 0.0129.

What about the Prob-Test [2] of the same molecule?
The Prob-Test was 0.311.

And the Prob-Naive [3]?
The Prob-Naive was -0.311.

What about the Prob-Train [4] of the same molecule?
Its Prob-Train is 0.363.

Which results are given for `Cn1ncnc1[C@H]1c2n[nH]c(=O)c3cc(F)cc(c23)N[C@@H]1c1ccc(F)cc1`?
OMR-Perf [1]: -0.0189; Prob-Test [2]: -0.6; Prob-Naive [3]: 0.146; Prob-Train [4]: -0.0364

How did the OMR-Perf [1] turn out when `OC[C@@H](O)[C@@H](O)[C@H](O)[C@@H](O)CO` [Sorbitol] was run?
Its OMR-Perf is 0.156.

What about the Prob-Test [2] of the same molecule?
Its Prob-Test is 0.115.

What about the Prob-Naive [3] of the same molecule?
The Prob-Naive was -0.351.

And the Prob-Train [4]?
Its Prob-Train is 0.512.

`CNCC[C@@H](Oc1ccccc1C)c1ccccc1.Cl` [Atomoxetine HCl] was tested. Which OMR-Perf [1] did it give?
The OMR-Perf was 0.398.

And the Prob-Test [2]?
The Prob-Test was 0.562.

And the Prob-Naive [3]?
Its Prob-Naive is 0.391.

And the Prob-Train [4]?
Its Prob-Train is 0.265.

With `CC(CC(=O)O)(CC(=O)O)C(=O)O.CCN(CC)CCOCCOC(=O)C(CC)(CC)c1ccccc1` [Oxeladin Citrate] as the molecule, how does the OMR-Perf [1] read?
Its OMR-Perf is -0.142.

And the Prob-Test [2]?
The Prob-Test was 0.0488.

What about the Prob-Naive [3] of the same molecule?
The Prob-Naive was 0.61.

And the Prob-Train [4]?
The Prob-Train was 0.571.

With `COc1cc2c(Oc3ccc(NC(=O)C4(C(=O)Nc5ccc(F)cc5)CC4)cc3F)ccnc2cc1OCCCN1CCOCC1` as the molecule, how does the OMR-Perf [1] read?
The OMR-Perf was -0.416.

And the Prob-Test [2]?
The Prob-Test was -1.53.

And the Prob-Naive [3]?
The Prob-Naive was -0.186.

And the Prob-Train [4]?
Its Prob-Train is -1.5.

For `CCC1(c2ccccc2)C(=O)NCNC1=O` [Primidone], which OMR-Perf [1] is on record?
The OMR-Perf was -0.672.

And the Prob-Test [2]?
The Prob-Test was 0.0651.

And the Prob-Naive [3]?
The Prob-Naive was 0.375.

What about the Prob-Train [4] of the same molecule?
The Prob-Train was -0.0956.

How did the OMR-Perf [1] turn out when `C[C@H]1O[C@@H](n2cc(F)c(=O)[nH]c2=O)[C@@H](O)[C@@H]1O` [Doxifluridine] was run?
The OMR-Perf was -0.39.

And the Prob-Test [2]?
Its Prob-Test is 0.0974.

What about the Prob-Naive [3] of the same molecule?
The Prob-Naive was -0.0225.

And the Prob-Train [4]?
Its Prob-Train is 0.0779.

With `OCC(CO)N[C@H]1C[C@@](O)(CO)[C@@H](O)[C@H](O)[C@H]1O` [Voglibose] as the molecule, how does the OMR-Perf [1] read?
The OMR-Perf was 0.0755.

What about the Prob-Test [2] of the same molecule?
Its Prob-Test is 0.127.

And the Prob-Naive [3]?
The Prob-Naive was -0.478.

And the Prob-Train [4]?
Its Prob-Train is -0.158.

Which OMR-Perf [1] does the source give for `Cc1ccc(NC(=O)c2ccc(CN3CC[C@H](N(C)C)C3)c(C(F)(F)F)c2)cc1Nc1ncc(-c2cncnc2)cn1` [Bafetinib (INNO-406)] here?
Its OMR-Perf is 0.33.

What about the Prob-Test [2] of the same molecule?
The Prob-Test was 0.161.

And the Prob-Naive [3]?
The Prob-Naive was 0.773.

And the Prob-Train [4]?
The Prob-Train was -0.561.

`C=C1[C@H](CO)[C@@H](O)C[C@@H]1n1cnc2c(=O)nc(N)[nH]c21.O` [Entecavir Hydrate] was tested. Which OMR-Perf [1] did it give?
Its OMR-Perf is 0.36.

What about the Prob-Test [2] of the same molecule?
Its Prob-Test is 0.132.

And the Prob-Naive [3]?
The Prob-Naive was -0.533.

And the Prob-Train [4]?
Its Prob-Train is -0.286.

What does the source list for `Cl.N=C(N)NC(=N)NCCc1ccccc1` [Phenformin HCl]?
OMR-Perf [1]: 0.254; Prob-Test [2]: -0.532; Prob-Naive [3]: -0.06; Prob-Train [4]: -0.273

How did the OMR-Perf [1] turn out when `CC1(C)S[C@@H]2[C@H](NC(=O)Cc3ccccc3)C(=O)N2[C@H]1C(=O)[O-].[Na+]` [Penicillin G Sodium] was run?
The OMR-Perf was -0.488.

What about the Prob-Test [2] of the same molecule?
Its Prob-Test is -0.0705.

And the Prob-Naive [3]?
The Prob-Naive was -0.18.

What about the Prob-Train [4] of the same molecule?
The Prob-Train was -0.585.

For `COc1cc(NC(=O)c2ccccn2)ccc1Cl`, which OMR-Perf [1] is on record?
The OMR-Perf was 0.23.

What about the Prob-Test [2] of the same molecule?
Its Prob-Test is -0.627.

And the Prob-Naive [3]?
Its Prob-Naive is -1.06.

And the Prob-Train [4]?
Its Prob-Train is -1.32.

`NS(=O)(=O)c1cc(C(=O)O)c(NCc2ccco2)cc1Cl` [Furosemide] was tested. Which OMR-Perf [1] did it give?
The OMR-Perf was -0.333.

What about the Prob-Test [2] of the same molecule?
Its Prob-Test is -0.52.

And the Prob-Naive [3]?
Its Prob-Naive is -0.0545.

And the Prob-Train [4]?
The Prob-Train was -0.406.

For `Cl.N=c1ccn2c(n1)O[C@@H]1[C@@H](O)[C@@H](CO)O[C@H]12` [Cyclocytidine HCl], which OMR-Perf [1] is on record?
Its OMR-Perf is -0.704.

What about the Prob-Test [2] of the same molecule?
Its Prob-Test is 0.45.

What about the Prob-Naive [3] of the same molecule?
The Prob-Naive was -0.0681.

And the Prob-Train [4]?
Its Prob-Train is 0.162.

`CCCCCCCCCCOc1cc2c(O)c(C(=O)OCC)cnc2cc1OCC` [Decoquinate] was tested. Which OMR-Perf [1] did it give?
The OMR-Perf was 0.366.

And the Prob-Test [2]?
The Prob-Test was 0.43.

What about the Prob-Naive [3] of the same molecule?
Its Prob-Naive is 0.153.

And the Prob-Train [4]?
Its Prob-Train is 0.921.

For `COc1ccc2c(c1)c(CC(=O)OCC(=O)O)c(C)n2C(=O)c1ccc(Cl)cc1` [Acemetacin], which OMR-Perf [1] is on record?
Its OMR-Perf is -0.203.

And the Prob-Test [2]?
The Prob-Test was 0.566.

What about the Prob-Naive [3] of the same molecule?
Its Prob-Naive is 0.13.

What about the Prob-Train [4] of the same molecule?
The Prob-Train was -0.151.

Which results are given for `C[C@@H]1[C@H](O)[C@@H](C)/C=C/C=C/C=C/C=C/C=C/C=C/C=C/[C@H](O[C@@H]2O[C@H](C)[C@@H](O)[C@H](N)[C@@H]2O)C[C@@H]2O[C@@](O)(C[C@@H](O)C[C@@H](O)[C@H](O)CC[C@@H](O)C[C@@H](O)CC(=O)O[C@H]1C)C[C@H](O)[C@@H]2C(=O)O` [Amphotericin B]?
OMR-Perf [1]: -0.267; Prob-Test [2]: 0.187; Prob-Naive [3]: 0.255; Prob-Train [4]: 0.133

Which OMR-Perf [1] does the source give for `COc1ccc([C@@H]2Sc3ccccc3N(CCN(C)C)C(=O)[C@@H]2OC(C)=O)cc1.Cl` [Diltiazem HCl] here?
The OMR-Perf was -0.00475.

And the Prob-Test [2]?
The Prob-Test was -0.117.

What about the Prob-Naive [3] of the same molecule?
The Prob-Naive was -0.196.

What about the Prob-Train [4] of the same molecule?
Its Prob-Train is -0.57.

With `Cc1ccnc(NS(=O)(=O)c2ccc(N)cc2)n1` [Sulfamerazine] as the molecule, how does the OMR-Perf [1] read?
Its OMR-Perf is 0.163.

And the Prob-Test [2]?
The Prob-Test was 0.504.

What about the Prob-Naive [3] of the same molecule?
The Prob-Naive was 0.

And the Prob-Train [4]?
Its Prob-Train is 0.448.
